Results taken from article PMC4766014, “Structures of Two Melanoma-Associated Antigens Suggest Allosteric Regulation of Effector Binding” (PLoS ONE, 2016).
These are yes or no findings as the source states them, for the method shown. Some entries that bind do so weakly or less than the wild type.

Sequences of proteins named here, by UniProt entry; tags and fusion partners are left off. Residues count along the entry.
UniProt P43358, residues 101-317: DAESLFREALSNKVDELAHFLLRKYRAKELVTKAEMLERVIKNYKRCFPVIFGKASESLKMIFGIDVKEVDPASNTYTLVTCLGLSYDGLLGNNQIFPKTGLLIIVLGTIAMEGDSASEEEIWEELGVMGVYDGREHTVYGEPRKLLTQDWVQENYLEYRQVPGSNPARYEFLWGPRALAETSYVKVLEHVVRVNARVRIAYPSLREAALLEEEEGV

Assays:
[1] = target: MAGE-A4 MHD domain, residues 101-317, His tag cleaved (human) (UniProt P43358); experiment: SEC; gel filtration of MAGE-A4 with the tag cleaved, without galactose; column and buffer not given; both purified
[2] = target: MAGE-A4 MHD domain, residues 101-317, His tag cleaved (human) (UniProt P43358); experiment: AUC; sedimentation velocity, 4°C, 45,000 rpm, 10 mM HEPES pH 7.5, 150 mM NaCl, 0.5 mM TCEP; MAGE-A3 at 0.75 mg/ml, MAGE-A4 at 0.5 mg/ml; c(s) analysis with SEDFIT; both purified
[3] = target: MAGE-A3 MHD domain, residues 104-314 (human) (UniProt P43357); experiment: crystal structure; MAGE-A3 104-314, 4°C, 15% PEG 3350, 0.1M Mg Formate; one molecule in the asymmetric unit, dimers A and B formed with symmetry-related molecules; both purified

MAGE-A4 MHD domain, residues 101-317, His tag cleaved (from UniProt P43358 101-317) (domain or fragment)
binding [1]: no binding | binding [2]: no binding (tested: 0.5 mg/ml)

B1: MAGE-A3 MHD domain, residues 104-314 (domain or fragment, human, UniProt P43357 104-314, looked up)
chain: EFQAALSRKVAELVHFLLLKYRAREPVTKAEMLGSVVGNWQYFFPVIFSKASSSLQLVFGIELMEVDPIGHLYIFATCLGLSYDGLLGDNQIMPKAGLLIIVLAIIAREGDCAPEEKIWEELSVLEVFEGREDSILGDPKKLLTQHFVQENYLEYRQVPGSDPACYEFLWGPRALVETSYVKVLHHMVKISGGPHISYPPLHEWVLREGEE
notes: MAGE-A3, human, MAGE homology domain (MHD), residues 104-314; Dimer in solution by AUC and SAXS (dimer B interface); The final 4 residues are disordered in the crystal structure; also called MAGE-A3^104-314; melanoma associated antigen A3
binding [3]: binds
